Assay results published in publication PMC12165809.
Results are given in words; binding and its absence hold for the method and conditions named. For some of these results: In cells and extracts the contact can be indirect. Some results given as binding are weak or reduced against the parent protein; the word gives no strength. For some of these results: Where a sequence is shown, tags or fusion partners need not be part of it. Blank lines part the entries; values can stand above or below the substance they belong to.

The chains behind the UniProt entries cited, without tags or fusion partners.
UniProt Q15418: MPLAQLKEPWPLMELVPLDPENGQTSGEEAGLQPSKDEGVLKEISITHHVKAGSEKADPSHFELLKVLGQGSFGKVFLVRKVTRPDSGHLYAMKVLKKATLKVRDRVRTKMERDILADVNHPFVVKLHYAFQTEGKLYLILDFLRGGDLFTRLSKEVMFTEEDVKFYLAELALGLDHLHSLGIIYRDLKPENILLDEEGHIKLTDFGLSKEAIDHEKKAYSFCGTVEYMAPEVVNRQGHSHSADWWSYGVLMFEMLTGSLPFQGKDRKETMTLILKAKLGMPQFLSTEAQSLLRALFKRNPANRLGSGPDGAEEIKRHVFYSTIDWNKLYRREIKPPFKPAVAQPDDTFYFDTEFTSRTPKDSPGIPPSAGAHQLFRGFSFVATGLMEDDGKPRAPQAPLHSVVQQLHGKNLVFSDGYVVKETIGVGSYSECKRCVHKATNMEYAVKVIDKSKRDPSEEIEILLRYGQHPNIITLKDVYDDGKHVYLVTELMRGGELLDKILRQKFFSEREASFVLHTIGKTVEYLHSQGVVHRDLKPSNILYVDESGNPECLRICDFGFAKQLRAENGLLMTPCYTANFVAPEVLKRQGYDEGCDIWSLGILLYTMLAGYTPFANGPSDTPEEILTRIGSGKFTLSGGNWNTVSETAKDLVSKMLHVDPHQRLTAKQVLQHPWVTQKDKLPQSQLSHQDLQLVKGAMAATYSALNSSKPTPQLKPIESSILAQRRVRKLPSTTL

Legend:
HA-Flag TRIM28 = HA-Flag TRIM28 (UniProt Q13263); assay: co-IP; 293T cells transfected with both partners; lysed in NETN buffer (100 mM NaCl, 20 mM Tris-Cl pH 8.0, 1 mM EDTA, 0.5% NP-40); anti-Flag (M2) overnight at 4°C, Protein G magnetic beads; immunoblot
HA-Flag RSK1 = HA-Flag RSK1 (UniProt Q15418); assay: as above
[1] = biological target: T1, GST-TRIM28 fragment 1 (F1) (UniProt Q13263); assay: pull-down; GST pull-down with recombinant RSK1 and GST-TRIM28 fragments (F1, F2) expressed in E. coli; immunoblot; both purified
T1 sequence: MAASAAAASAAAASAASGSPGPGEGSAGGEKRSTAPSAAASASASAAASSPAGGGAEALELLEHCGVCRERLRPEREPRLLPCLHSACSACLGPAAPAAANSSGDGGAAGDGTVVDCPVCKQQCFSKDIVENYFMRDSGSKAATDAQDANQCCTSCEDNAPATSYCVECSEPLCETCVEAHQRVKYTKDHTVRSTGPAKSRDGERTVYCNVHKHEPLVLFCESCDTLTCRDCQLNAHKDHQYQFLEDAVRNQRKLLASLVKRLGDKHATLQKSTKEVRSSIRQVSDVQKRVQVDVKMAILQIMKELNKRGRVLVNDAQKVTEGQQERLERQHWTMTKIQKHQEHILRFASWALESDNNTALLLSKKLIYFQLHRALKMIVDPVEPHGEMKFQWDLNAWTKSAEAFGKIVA

[2] = biological target: T2, GST-TRIM28 fragment 2 (F2) (UniProt Q13263); assay: as above
T2 sequence: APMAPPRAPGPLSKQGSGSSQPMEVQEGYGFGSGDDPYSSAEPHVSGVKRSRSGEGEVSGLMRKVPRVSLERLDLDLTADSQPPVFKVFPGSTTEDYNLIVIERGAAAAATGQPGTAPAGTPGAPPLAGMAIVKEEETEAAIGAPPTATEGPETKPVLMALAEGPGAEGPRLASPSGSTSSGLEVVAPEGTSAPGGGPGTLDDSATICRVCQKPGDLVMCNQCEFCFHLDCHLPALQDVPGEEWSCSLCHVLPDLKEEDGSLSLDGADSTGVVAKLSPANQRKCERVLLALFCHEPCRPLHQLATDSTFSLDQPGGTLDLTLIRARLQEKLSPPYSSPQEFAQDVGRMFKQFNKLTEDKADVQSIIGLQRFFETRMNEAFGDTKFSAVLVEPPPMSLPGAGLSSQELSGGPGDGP

binding (HA-Flag TRIM28): binds
Substance: MYC-RSK1 (from UniProt Q15418 1-735) (enzyme)

binding (HA-Flag RSK1): binds
Substance: MYC-TRIM28 (from UniProt Q13263 1-835)

binding [1]: binds | binding [2]: binds
Substance: recombinant RSK1 (from UniProt Q15418 1-735) (enzyme)
